Assay results: paper doi:10.1101/640185
Like-named read-outs stand apart in the source and are kept apart here. These are yes or no findings as the source states them, for the method shown. In cells and extracts the contact can be indirect. Binding calls can cover weak binding; strength is not graded here.

Amino acid sequences for entries named in this document (tags omitted). A change or cut given only in a name is not applied to a line headed by its entry.
UniProt P21707: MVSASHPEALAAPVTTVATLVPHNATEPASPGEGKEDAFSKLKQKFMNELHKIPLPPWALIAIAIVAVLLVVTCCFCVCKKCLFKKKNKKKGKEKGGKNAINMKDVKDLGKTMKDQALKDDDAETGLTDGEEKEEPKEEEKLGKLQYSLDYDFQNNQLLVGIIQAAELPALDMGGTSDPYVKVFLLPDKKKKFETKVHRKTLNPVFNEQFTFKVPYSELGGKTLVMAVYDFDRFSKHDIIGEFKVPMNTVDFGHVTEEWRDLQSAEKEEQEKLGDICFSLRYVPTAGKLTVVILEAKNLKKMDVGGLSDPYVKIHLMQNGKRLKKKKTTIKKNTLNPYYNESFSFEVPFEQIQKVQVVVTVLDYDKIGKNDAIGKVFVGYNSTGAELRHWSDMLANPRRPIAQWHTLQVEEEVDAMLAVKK
UniProt Q9JIS5: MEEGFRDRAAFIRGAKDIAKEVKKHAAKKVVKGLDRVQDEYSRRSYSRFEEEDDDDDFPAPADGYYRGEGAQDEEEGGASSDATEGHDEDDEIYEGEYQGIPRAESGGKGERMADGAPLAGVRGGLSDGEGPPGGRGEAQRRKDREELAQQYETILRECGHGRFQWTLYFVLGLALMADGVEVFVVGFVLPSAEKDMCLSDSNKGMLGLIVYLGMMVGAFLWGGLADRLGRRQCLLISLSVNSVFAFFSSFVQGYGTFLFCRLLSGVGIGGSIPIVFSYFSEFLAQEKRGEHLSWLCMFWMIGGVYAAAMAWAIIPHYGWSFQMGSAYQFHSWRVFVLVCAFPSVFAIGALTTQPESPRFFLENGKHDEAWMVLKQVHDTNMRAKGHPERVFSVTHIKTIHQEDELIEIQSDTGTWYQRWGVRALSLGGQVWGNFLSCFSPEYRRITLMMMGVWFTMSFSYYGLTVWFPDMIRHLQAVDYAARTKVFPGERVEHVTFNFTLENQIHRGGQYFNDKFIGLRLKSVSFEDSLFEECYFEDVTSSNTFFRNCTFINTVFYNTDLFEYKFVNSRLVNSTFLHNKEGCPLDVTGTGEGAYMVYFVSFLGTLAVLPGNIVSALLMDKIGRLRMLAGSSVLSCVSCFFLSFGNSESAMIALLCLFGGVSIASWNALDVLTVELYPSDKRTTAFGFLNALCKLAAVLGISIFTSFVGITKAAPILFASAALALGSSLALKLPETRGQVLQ

Tests used:
Assay in all cases: pull-down
[1] = molecular target: glutathione-S-transferase–synaptotagmin 1 fusion protein (UniProt P21707)
[2] = molecular target: glutathione-S-transferase–synaptotagmin 1 fusion protein (UniProt P21707); remark: listed apart in the source
[3] = molecular target: glutathione-S-transferase–synaptotagmin 1 fusion protein (UniProt P21707); remark: listed apart in the source

Measured: binding

Synaptic Vesicle protein 2A (from UniProt Q9JIS5 1-742)
binds: all assays above
